Drawing on PubChem BioAssay AID1508624 (National Center for Advancing Translational Sciences (NCATS), 2021), this text covers activity change, positive = activation for one compound.

This list holds what a sample rich in hits left over. Records with an inconclusive call do not appear. Active and inactive are the calls of the source. Calls come from the whole dose curve; as a rule, active = well fitted activation curve with a large enough effect; inconclusive = small, poorly fitted or top-dose-only effect, or another doubt; inactive = no such curve, though single readings can be large or run the other way.

The experiment can be described thus: Primary qHTS for Identification of Small Molecule Activators of Huntingtin-Antisense Promoter Activity. Note: nearly all actives have a fitted effect of over 55% in size. The settings on record: HEK293 HTT-AS promoter firefly luciferase reporter (activity 0% = vehicle and -100% = no light), 24 h; at 116 µM (top of the series). From the text:
Assay Provider: Russell L. Margolis M.D.
Department Neurology, Johns Hopkins University School of Medicine, Baltimore, MD
Huntington's Disease (HD) is a neurodegenerative disorder caused by a CAG repeat expansion in exon 1 of huntingtin (HTT). While there are currently no disease-modifying treatments for HD, recent efforts have focused on development of nucleotide-based therapeutics to lower HTT expression. As an alternative to siRNA or oligonucleotide methods, we hypothesized that suppression of HTT expression might be accomplished by small molecules that either (1) directly decrease HTT expression by suppressing HTT promoter activity or (2) indirectly decrease HTT expression by increasing the promoter activity of HTT-AS, the gene antisense to HTT that appears to inhibit expression of HTT. […]
7; Detection; Luminescence; FLuc […]
1; High-throughput screening, measuring luminescence from a Hek293 luciferase reporter, was performed in 1,536 well white-walled tissue-culture treated plates. […]
4; Cells were then incubated for 24 hours at 37 degrees C prior to luminescence measurements.
5; In all cases, luminescence was measured using the Dual-Glo Luciferase Reporter Assay System (Promega) following the manufacturer's instructions. […]
7; Luminescence signal was obtained using the PerkinElmer ViewLux plate reader. […]
For the compound `Nc1ccc(N)c([N+](=O)[O-])c1`, the activity change, positive = activation was inactive: -33.8%.
